Some of the results follow. Most entries show no effect beyond the scatter of the controls.

Sequences of proteins named here, by UniProt entry; tags and fusion partners are left off. A change or cut given only in a name is not applied to a line headed by its entry.
UniProt P10809, whole entry: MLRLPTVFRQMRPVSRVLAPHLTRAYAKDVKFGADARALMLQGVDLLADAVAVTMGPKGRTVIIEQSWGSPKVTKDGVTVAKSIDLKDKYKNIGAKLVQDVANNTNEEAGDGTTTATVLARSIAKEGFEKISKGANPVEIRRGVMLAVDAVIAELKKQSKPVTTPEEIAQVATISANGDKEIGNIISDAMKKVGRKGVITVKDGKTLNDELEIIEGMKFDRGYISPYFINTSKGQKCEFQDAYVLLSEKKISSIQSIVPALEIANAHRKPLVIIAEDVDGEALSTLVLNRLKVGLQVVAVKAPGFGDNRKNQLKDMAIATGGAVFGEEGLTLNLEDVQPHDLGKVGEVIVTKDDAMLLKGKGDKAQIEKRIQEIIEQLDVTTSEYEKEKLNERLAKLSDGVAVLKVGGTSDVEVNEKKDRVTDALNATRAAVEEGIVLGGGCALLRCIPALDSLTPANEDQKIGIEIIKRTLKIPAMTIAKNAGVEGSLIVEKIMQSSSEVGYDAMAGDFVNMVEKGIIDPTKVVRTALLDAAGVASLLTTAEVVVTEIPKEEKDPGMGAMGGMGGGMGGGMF
UniProt P0C221: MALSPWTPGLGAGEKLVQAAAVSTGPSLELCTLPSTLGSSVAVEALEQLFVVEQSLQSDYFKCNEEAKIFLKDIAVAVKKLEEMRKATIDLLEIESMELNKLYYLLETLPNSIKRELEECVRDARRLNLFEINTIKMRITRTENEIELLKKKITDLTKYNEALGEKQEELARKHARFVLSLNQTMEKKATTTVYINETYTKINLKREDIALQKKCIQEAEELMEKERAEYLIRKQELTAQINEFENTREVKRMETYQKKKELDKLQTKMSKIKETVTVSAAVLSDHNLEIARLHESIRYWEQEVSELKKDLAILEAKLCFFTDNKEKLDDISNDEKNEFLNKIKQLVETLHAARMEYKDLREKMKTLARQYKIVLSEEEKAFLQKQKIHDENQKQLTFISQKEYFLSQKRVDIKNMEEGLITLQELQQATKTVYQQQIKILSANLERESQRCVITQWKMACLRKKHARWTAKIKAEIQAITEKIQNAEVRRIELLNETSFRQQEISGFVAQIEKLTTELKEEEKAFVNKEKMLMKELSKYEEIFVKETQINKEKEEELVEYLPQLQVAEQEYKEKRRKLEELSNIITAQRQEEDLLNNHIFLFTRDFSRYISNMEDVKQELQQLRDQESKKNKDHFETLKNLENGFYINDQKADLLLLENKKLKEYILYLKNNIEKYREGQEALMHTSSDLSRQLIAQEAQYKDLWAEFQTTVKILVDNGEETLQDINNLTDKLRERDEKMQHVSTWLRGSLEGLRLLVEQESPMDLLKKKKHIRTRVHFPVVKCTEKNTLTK
UniProt P09086: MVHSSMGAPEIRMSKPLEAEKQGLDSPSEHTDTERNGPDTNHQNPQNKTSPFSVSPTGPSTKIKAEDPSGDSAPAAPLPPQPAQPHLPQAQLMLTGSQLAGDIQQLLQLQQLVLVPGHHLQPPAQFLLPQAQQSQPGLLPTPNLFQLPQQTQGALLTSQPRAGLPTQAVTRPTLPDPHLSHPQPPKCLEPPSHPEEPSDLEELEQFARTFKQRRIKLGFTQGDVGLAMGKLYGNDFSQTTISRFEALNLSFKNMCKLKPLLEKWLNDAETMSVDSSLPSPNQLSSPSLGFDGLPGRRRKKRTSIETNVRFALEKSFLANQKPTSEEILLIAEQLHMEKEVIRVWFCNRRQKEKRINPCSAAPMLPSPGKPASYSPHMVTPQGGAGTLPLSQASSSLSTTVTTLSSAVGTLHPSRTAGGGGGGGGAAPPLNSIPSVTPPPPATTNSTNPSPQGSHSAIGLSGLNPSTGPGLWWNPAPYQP
UniProt P0CAP2, whole entry: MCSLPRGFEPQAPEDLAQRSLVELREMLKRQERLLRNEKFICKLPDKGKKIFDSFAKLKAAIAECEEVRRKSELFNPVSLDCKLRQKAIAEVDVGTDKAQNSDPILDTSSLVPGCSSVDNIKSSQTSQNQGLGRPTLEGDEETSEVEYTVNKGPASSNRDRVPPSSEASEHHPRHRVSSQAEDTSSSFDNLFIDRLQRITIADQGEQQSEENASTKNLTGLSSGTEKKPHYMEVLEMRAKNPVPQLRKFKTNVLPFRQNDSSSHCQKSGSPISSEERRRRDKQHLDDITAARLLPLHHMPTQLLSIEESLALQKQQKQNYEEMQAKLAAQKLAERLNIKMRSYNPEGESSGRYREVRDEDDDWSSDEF
UniProt P09651: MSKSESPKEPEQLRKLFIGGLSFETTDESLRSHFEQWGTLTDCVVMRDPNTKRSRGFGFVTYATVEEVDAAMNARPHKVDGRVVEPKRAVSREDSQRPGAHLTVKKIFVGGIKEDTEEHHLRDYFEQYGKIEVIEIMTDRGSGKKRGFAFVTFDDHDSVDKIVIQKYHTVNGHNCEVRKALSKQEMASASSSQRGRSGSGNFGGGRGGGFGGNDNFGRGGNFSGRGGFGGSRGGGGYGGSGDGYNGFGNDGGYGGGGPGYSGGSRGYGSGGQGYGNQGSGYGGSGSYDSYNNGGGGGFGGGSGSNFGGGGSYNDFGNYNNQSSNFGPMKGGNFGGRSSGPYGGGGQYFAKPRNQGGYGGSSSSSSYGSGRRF
UniProt P11310: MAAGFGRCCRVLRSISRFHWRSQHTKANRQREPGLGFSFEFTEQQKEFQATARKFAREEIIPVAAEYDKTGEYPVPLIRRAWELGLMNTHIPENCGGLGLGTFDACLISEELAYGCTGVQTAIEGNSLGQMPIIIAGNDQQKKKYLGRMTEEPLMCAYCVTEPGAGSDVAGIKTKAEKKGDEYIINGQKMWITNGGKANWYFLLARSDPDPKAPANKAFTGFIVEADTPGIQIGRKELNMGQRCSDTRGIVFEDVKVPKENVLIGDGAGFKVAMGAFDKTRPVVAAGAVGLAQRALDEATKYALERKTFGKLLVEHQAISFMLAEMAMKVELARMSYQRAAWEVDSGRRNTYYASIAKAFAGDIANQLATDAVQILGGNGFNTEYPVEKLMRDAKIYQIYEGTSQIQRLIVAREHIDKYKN
UniProt P07919: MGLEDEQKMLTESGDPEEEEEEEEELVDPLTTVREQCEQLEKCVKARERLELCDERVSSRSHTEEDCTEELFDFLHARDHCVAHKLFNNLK
UniProt P11177, whole entry: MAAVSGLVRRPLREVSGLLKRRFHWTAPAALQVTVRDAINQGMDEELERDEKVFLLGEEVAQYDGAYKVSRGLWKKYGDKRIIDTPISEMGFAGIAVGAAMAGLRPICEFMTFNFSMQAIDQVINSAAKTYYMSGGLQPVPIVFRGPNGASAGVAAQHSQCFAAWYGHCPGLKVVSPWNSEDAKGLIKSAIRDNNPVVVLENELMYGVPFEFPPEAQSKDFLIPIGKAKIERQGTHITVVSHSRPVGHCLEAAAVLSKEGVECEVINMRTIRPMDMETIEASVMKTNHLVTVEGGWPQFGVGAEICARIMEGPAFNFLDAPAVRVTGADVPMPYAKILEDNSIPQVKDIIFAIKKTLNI
UniProt P07741: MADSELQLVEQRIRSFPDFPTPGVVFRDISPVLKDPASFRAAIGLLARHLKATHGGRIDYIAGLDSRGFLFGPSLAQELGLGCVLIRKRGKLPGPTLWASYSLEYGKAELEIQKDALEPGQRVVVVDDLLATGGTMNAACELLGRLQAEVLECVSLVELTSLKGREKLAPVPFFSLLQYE
UniProt P0DJJ0, whole entry: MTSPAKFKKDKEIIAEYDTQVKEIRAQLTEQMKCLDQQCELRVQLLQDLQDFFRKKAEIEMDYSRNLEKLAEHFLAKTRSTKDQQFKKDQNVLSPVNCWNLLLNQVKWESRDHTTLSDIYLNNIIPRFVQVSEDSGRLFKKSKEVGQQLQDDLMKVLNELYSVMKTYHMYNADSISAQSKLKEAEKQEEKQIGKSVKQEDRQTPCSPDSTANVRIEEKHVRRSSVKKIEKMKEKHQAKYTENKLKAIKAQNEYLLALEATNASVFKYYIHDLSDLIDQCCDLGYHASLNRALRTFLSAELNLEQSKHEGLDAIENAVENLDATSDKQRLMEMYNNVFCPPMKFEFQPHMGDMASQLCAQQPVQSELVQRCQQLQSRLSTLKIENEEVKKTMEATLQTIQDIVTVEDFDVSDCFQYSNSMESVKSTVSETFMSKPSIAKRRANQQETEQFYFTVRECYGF
UniProt P09234, whole entry: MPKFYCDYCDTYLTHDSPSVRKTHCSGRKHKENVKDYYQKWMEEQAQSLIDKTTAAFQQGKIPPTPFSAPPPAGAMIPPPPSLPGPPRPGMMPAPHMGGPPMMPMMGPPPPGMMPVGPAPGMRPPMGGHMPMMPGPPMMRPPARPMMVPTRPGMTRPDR
UniProt P04183: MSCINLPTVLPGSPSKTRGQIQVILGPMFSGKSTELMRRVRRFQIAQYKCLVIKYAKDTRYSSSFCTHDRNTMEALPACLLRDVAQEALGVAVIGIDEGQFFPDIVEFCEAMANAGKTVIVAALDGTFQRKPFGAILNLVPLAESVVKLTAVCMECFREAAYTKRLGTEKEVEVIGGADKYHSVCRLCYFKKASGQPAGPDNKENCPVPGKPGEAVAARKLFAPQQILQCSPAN
UniProt P00492: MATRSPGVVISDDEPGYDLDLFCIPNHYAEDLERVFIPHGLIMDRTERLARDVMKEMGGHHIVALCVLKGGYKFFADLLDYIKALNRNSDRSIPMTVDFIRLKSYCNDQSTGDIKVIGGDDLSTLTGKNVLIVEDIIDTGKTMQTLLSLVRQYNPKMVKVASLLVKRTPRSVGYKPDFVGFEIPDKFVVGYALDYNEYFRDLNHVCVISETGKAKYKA
UniProt P08134, whole entry: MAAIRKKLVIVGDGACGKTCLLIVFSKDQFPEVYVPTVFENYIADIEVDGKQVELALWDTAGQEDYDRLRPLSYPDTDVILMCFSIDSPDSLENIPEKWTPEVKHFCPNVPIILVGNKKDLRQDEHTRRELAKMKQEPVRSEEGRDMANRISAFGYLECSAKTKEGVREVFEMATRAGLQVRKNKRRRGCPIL
UniProt P11182, whole entry: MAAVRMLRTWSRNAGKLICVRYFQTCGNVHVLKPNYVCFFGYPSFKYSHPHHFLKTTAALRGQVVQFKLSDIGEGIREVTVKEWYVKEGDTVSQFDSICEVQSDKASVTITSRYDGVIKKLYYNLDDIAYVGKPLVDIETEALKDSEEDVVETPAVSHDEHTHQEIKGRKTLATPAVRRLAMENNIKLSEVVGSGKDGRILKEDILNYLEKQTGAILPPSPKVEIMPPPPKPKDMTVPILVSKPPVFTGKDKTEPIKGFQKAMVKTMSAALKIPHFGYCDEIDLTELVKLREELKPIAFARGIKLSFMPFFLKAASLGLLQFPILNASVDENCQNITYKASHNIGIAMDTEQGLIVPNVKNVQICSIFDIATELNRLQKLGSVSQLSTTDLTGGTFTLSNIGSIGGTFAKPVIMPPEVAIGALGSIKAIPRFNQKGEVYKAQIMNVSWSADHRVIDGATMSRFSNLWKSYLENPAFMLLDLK
UniProt P02795: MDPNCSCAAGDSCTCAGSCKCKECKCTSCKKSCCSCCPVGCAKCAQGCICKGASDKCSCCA
UniProt P10155: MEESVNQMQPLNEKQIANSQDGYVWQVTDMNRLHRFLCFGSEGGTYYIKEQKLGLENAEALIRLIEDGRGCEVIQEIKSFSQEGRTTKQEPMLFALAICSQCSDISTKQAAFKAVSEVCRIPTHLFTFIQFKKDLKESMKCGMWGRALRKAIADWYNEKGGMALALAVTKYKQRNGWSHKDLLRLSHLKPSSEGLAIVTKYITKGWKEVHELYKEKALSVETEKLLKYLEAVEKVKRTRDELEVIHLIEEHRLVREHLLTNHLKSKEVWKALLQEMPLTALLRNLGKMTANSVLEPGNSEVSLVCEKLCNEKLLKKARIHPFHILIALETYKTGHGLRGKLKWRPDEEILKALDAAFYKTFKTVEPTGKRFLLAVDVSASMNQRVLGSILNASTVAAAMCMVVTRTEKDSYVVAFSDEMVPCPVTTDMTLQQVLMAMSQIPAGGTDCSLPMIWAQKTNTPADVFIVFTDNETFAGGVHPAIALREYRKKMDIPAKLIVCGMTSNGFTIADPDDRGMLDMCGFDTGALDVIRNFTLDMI
UniProt P07355, whole entry: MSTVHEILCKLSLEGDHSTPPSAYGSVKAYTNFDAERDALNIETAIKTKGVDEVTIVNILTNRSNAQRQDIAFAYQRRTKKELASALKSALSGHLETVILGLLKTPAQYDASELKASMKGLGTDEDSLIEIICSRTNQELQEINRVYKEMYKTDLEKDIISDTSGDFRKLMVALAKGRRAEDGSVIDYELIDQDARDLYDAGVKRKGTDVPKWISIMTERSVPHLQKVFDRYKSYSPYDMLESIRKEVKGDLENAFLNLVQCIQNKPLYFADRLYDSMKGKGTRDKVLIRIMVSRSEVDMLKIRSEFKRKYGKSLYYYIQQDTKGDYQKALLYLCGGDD
UniProt P05386, whole entry: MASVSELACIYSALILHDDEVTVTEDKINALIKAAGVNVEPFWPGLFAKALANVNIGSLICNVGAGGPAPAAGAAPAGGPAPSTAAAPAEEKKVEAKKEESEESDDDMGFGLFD

Compound in the experiment: CN[C@@H]1C[C@H]2O[C@@](C)([C@@H]1OC)n1c3ccccc3c3c4c(c5c6ccccc6n2c5c31)C(=O)NC4 [staurosporine]
The experiment is described as follows: log2 fold change of tryptic peptide abundance, ligand vs vehicle (limited proteolysis) (log2 ratio); higher = more trypsin-susceptible (destabilized). To be noted: ligand concentration: 20 uM; sample: K562 cleared lysate; digestion: 4 min, 22 C (HT-PELSA RT4min, Orbitrap Astral).
On to “HSPD1 (peptide sequence: IPAMTIAK, peptide start residue: 474) (UniProt P10809)”, for which the log2 fold change is -0.244. The same measure for “CCDC175 (peptide sequence: KLEEMRK, peptide start residue: 80) (UniProt P0C221)”: -0.0207; for “UniProt P09086 (peptide sequence: IKLGFTQGDVGLAMGK, peptide start residue: 300)”: 0.0968; for “POLR2M (peptide sequence: AKNPVPQLR, peptide start residue: 239) (UniProt P0CAP2)”: 0.324. Regarding “HMGCR (peptide sequence: FLSDAEIIQLVNAK, peptide start residue: 461) (UniProt P04035)”, the log2 fold change was found to be 0.763. Take “HNRNPA1 (peptide sequence: SESPKEPEQLR, peptide start residue: 4) (UniProt P09651)”: the log2 fold change is -0.0667. The value for “ACADM (peptide sequence: MWITNGGK, peptide start residue: 190) (UniProt P11310)” was 0.202; that for “FBXO45 (peptide sequence: NPIAQSTDGAR, peptide start residue: 135) (UniProt P0C2W1)” was 0.592.

On to “JUN (peptide sequence: NVTDEQEGFAEGFVR, peptide start residue: 102) (UniProt P05412)”, for which the log2 fold change was -0.379. The value for “UQCRH (peptide sequence: LELCDER, peptide start residue: 50) (UniProt P07919)” was 0.0462; that for “PDHB (peptide sequence: VVSPWNSEDAK, peptide start residue: 174) (UniProt P11177)” was 0.233; that for “PYGB (peptide sequence: GLAGLGDVAEVRK, peptide start residue: 18) (UniProt P11216)” was 0.172. Turning to “APRT (peptide sequence: GKLPGPTLWASYSLEYGK, peptide start residue: 90) (UniProt P07741)”, the log2 fold change is 0.482. As for “TOP1 (peptide sequence: YYNKVPVEK, peptide start residue: 537) (UniProt P11387)”, the log2 fold change stood at 1.03. The same measure for “CAT (peptide sequence: NAIHTFVQSGSHLAAR, peptide start residue: 507) (UniProt P04040)”: -0.139; for “UniProt P0DJJ0 (peptide sequence: STVSETFMSKPSIAKR, peptide start residue: 424)”: 0.49; for “SNRPC (peptide sequence: TTAAFQQGK, peptide start residue: 53) (UniProt P09234)”: -0.155. Consider “TK1 (peptide sequence: YSSSFCTHDR, peptide start residue: 61) (UniProt P04183)”, for which the log2 fold change was found to be 0.167. With “HPRT1 (peptide sequence: VFIPHGLIMDR, peptide start residue: 35) (UniProt P00492)”, the log2 fold change was determined as 0.168. With “UniProt P08134 (peptide sequence: HFCPNVPIILVGNKK, peptide start residue: 105)”, the log2 fold change was found to be 0.136. Regarding “DBT (peptide sequence: LSEVVGSGK, peptide start residue: 188) (UniProt P11182)”, the log2 fold change was determined as 0.537. In the case of “ADH1A (peptide sequence: CKAAVLWELK, peptide start residue: 10) (UniProt P07327)”, the log2 fold change stood at 0.166. With “MT2A (peptide sequence: KSCCSCCPVGCAKCAQGCICK, peptide start residue: 31) (UniProt P02795)”, the log2 fold change was -0.219. The same measure for “UniProt P10155 (peptide sequence: IPTHLFTFIQFK, peptide start residue: 121)”: 0.559; for “ANXA2 (peptide sequence: KGTDVPKWISIMTER, peptide start residue: 206) (UniProt P07355)”: 0.453. Regarding “MAPT (peptide sequence: LQTAPVPMPDLK, peptide start residue: 560) (UniProt P10636)”, the log2 fold change was found to be 0.269.

As for “APOB (peptide sequence: LIVAMSSWLQK, peptide start residue: 1230) (UniProt P04114)”, the log2 fold change is 0.267. Turning to “RPLP1 (peptide sequence: KEESEESDDDMGFGLFD, peptide start residue: 99) (UniProt P05386)”, the log2 fold change is -0.142.

The values above are taken from the supplement of paper PMC12819154, “High-throughput peptide-centric local stability assay extends protein–ligand identification to membrane proteins, tissues and bacteria” (Nature Structural & Molecular Biology, 2025).
